The values below are quoted from earlier work in paper PMC9321930, “Modelling the Human Blood–Brain Barrier in Huntington Disease” (International Journal of Molecular Sciences, 2022).

For the data set the following is noted: Table S4; cited from earlier work.

Take `CC(C)NCC(O)COc1ccc(CC(N)=O)cc1` (stereo not shown) [atenolol]: the “Human Kp,uu,CSF” value is given as 0.18.
